Results are given in words; binding and its absence hold for the method and conditions named. Some entries that bind do so weakly or less than the wild type.
What was measured:
[1] = target: human GPVI protein, soluble extracellular domain (D1 and D2) (human) (UniProt Q9HCN6); test: SPR (BIAcore 2000)
[2] = target: human GPVI protein, soluble extracellular domain (D1 and D2) (human) (UniProt Q9HCN6); test: complex formation for co-crystallisation

Protein sequences, listed by entry. Tags and fused reporters are not part of them. Residues count along the entry.
UniProt Q9HCN6, residues 21-267: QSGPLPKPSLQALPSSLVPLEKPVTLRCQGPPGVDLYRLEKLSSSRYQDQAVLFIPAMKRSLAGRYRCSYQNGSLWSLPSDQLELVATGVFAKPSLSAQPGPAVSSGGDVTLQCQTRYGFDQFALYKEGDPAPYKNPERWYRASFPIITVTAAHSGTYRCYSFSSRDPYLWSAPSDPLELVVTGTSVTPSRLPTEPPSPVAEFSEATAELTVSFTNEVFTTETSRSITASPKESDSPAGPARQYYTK

B1: anti-GPVI mAb from hybridoma clone 390 (antibody, mouse IgG1, kappa, V domains shown)
VH: QVQLKESGPGLVAPSQSLSITCTVSGFSLTGYGVNWVRQPPGKGLEWLGMIWGDGSTDYNSTLKSRLSISKDNSKSQVFLKMNSLQTDDTARYYCARDLPMDYWGQGTSVTVSS
VL: DIQMTQSPSSLSASLGGKVTITCKASQDINKYIAWYQHKPGKGPSLLIHYTSTLQPGIPSRFSGSGSGRDYSFSISNLEPEDIATYYCLQYANLLTFGGGTKLEIKR
modifications: N-glycosylation site (NST) in the heavy chain variable region is occupied
binding [1]: binds

B2: Fab 390-nG (recombinant non-glycosylated Fab of clone 390) (Fab, V domains shown)
VH: QVQLKESGPGLVAPSQSLSITCTVSGFSLTGYGVNWVRQPPGKGLEWLGMIWGDGSTDYQSTLKSRLSISKDNSKSQVFLKMNSLQTDDTARYYCARDLPMDYWGQGTSVTVSS
VL: DIQMTQSPSSLSASLGGKVTITCKASQDINKYIAWYQHKPGKGPSLLIHYTSTLQPGIPSRFSGSGSGRDYSFSISNLEPEDIATYYCLQYANLLTFGGGTKLEIKR
binding [2]: binds
